PubChem BioAssay AID1259308 | NCATS, 2017
The whole screen tested about 59,000 reagents; shown is a random part of them. Of all reagents, about 1,510 (2.6%) are marked active. 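Calls use total luciferase alone and ignore viability, so some active siRNAs may act by altering cell number.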 The numbers tell different reagents against one gene apart. Not all columns of the deposit are shown.

- Purpose: 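Knock-downs that increase output of a recombinant reporter protein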 (primary screen)
- System: human HEK293 embryonic kidney cells stably expressing firefly luciferase (HEK-CMV-Luc2-Hygro)
- Knock-down reagent: single siRNA against human genes, 0.8 pmol siRNA per well
- Time to read-out: 72 h
- Read-out: 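Reporter luminescence and viable-cell signal on separate replicate plates, given as percent of non-targeting control and median/MAD z-scores, plus per-cell luciferase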
- Reading the numbers: total luciferase, z-score: higher = more reporter protein produced
- Hit rule: 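An siRNA counts as active if its total luciferase robust z-score exceeds 3; genes with two or more such siRNAs out of three were retested with fresh siRNAs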
- Meaning of the calls: active = raised luciferase; inactive = no rise

Knock-down of PRODH #1 resulted in: total luciferase, z-score 1.54; inactive.
PRODH #2 gave total luciferase, z-score 1.66; inactive.
For PRODH #3 the deposit lists total luciferase, z-score -0.386; inactive.
Silencing of MIEN1 #1 came out at: total luciferase, z-score 0.244; inactive.
With knock-down of MIEN1 #2, the screen gave total luciferase, z-score -0.773; inactive.
For MIEN1 #3, the values are total luciferase, z-score 0.549; inactive.
For AWAT1 #1, the values are total luciferase, z-score -0.179; inactive.
After knock-down of AWAT1 #2, the record shows total luciferase, z-score 0.664; inactive.
Silencing of AWAT1 #3 resulted in: total luciferase, z-score -2.13; inactive.
NPM1 #1 showed total luciferase, z-score -0.457; inactive.
Against NPM1 #2 the deposit lists total luciferase, z-score -0.101; inactive.
Against NPM1 #3, the entry reads total luciferase, z-score -0.517; inactive.
With knock-down of AGPAT1 #1, the screen gave total luciferase, z-score -1.66; inactive.
Against AGPAT1 #2 the deposit lists total luciferase, z-score -1.68; inactive.
AGPAT1 #3 gave total luciferase, z-score -1.07; inactive.
IFNA1 #1 gave total luciferase, z-score 1.38; inactive.
Silencing of IFNA1 #2 gave: total luciferase, z-score -0.595; inactive.
With knock-down of IFNA1 #3, the screen gave total luciferase, z-score 1.01; inactive.
Depletion of PRND #1 gave: total luciferase, z-score 0.586; inactive.
Silencing of PRND #2 came out at: total luciferase, z-score 1.06; inactive.
Against PRND #3 the deposit lists total luciferase, z-score 0.574; inactive.
With knock-down of PLEKHA7 #1, the record shows total luciferase, z-score -0.897; inactive.
PLEKHA7 #2 scored total luciferase, z-score -0.0989; inactive.
For PLEKHA7 #3 the deposit lists total luciferase, z-score 0.33; inactive.
With knock-down of RANGAP1 #1, the record shows total luciferase, z-score 1.32; inactive.
RANGAP1 #2 scored total luciferase, z-score 0.576; inactive.
Knock-down of RANGAP1 #3 came out at: total luciferase, z-score 1.04; inactive.
DNAAF2 #1 showed total luciferase, z-score 2.99; inactive.
Against DNAAF2 #2, the values are total luciferase, z-score 0.616; inactive.
After knock-down of DNAAF2 #3, the record shows total luciferase, z-score -0.89; inactive.
Against PSMA5 #1 the deposit lists total luciferase, z-score 0.036; inactive.
Depletion of PSMA5 #2 gave: total luciferase, z-score 0.348; inactive.
For PSMA5 #3, the entry reads total luciferase, z-score -1.58; inactive.
Against HPDL #1, the values are total luciferase, z-score -1.03; inactive.
Silencing of HPDL #2 resulted in: total luciferase, z-score 3.1; active.
Against HPDL #3, the values are total luciferase, z-score 0.631; inactive.
Against TMEM216 #1, the values are total luciferase, z-score 1.16; inactive.
After knock-down of TMEM216 #2 the results were total luciferase, z-score 0.589; inactive.
Depletion of TMEM216 #3 resulted in: total luciferase, z-score 0.903; inactive.
Silencing of TRIM32 #1 resulted in: total luciferase, z-score 1.2; inactive.
After knock-down of TRIM32 #2 the results were total luciferase, z-score -0.39; inactive.
Silencing of TRIM32 #3 gave: total luciferase, z-score -0.525; inactive.

Quoted from the entries so far (3 entries):
RANGAP1 #1: total luciferase, z-score = 1.32; outcome = inactive
RANGAP1 #2: total luciferase, z-score = 0.576; outcome = inactive
RANGAP1 #3: total luciferase, z-score = 1.04; outcome = inactive
